Among the data in patent publication US20210130452A1 are binding values, retold here.

Changes are numbered by the printed parent chain. These are yes or no findings as the source states them, for the method shown.

The assay deals with guinea pig IL-17A (guinea pig). The assay is described as follows: binding ELISA.

B1: 04G01 (VHH)
VHH: EVQLVESGGGLVQAGGSQRLSCTASGTIVNIHVMGWYRQAPGKQRELVALIFSGGSADYADSVKGRFTISRDNAKNTVYLEMNSLKAEDTAVYYCAAEIGYYSGGTYYSSEAHWGQGTQVTVSS
Turning to B1, the binding result was “no binding (tested: 250 nM)”.

B2: 13B03 (VHH)
VHH: EVQLVESGGGSVQAGDSLRLSCAASGRANSINWFGWFRQTPGKEREFVAGIRWSDAYTEYANSVKGRFTISRDNAKNTVDLQMDSLKPEDTAVYYCVLDLSTVRYWGQGTQVTVSS
Regarding B2, the binding result is given as “no binding (tested: 250 nM)”.

B3: 01A01 (VHH)
VHH: EVQLVESGGGLVQAGGSLRLSCAASGFTFDDYDIGWFRQAPGKEREGVSCFTSSDGRTFYADSVKGRFTVSADNAKNTVYLQMNSLEPEDTAVYFCAAVNTFDESAYAAFACYDVVRWGQGTQVTVSS
With B3, the binding result is listed as “no binding (tested: 250 nM)”.

B4: 13B05 (VHH)
VHH: EVQLVESGGRLVQAGGSLRLSCAASGRTFTSYPMGWFRQAPGKEREFVAAISMSGDDTAYTDFVRGRFTISRDDARNTVYLHMTSLKPEDTAVYYCAARTSYDGTYDYIDDYSYWGQGTQVTVSS
As for B4, the binding entry is on record as “no binding (tested: 250 nM)”.

B5: 17C01 (VHH)
VHH: B4 VHH with S21P, T58A, T61A
As to B5, the binding entry is listed as “no binding (tested: 250 nM)”.

B6: 02A08 (VHH)
VHH: EVQLVESGGGVVQPGGSLRLSCADSERSFSFNAMGWFRQAPGKEREFVAAISATGDDTYYADSVKGRFAISRDTARNTVYLQMNSLKPEDTAVYYCGARVNFDGTVSYTNDYAYWGQGTQVTVSS
Take B6: the binding entry was “no binding (tested: 250 nM)”.

B7: 09G10 (VHH)
VHH: EVQLVESGGGLVQAGGSLRLSCAASDSVFTAKAVGWYRQPPGLQREWVAIITSGGKTNYADSSVKGRFTVSVDKVKNTVTLQMNSLKPEDTAVYYCYAQWMGRDYWGQGTQVTVSS
For the molecule B7, the binding result is recorded as “no binding (tested: 250 nM)”.

B8: 13E02 (VHH)
VHH: EVQLVESGGGLVQAGGSLRLSCAASGRTYDAMGWLRQAPGKEREFVAAISGSGDDTYYADSVKGRFTISKDNAGITMYLQMNSLKPEDTAVYYCATRRGLYYVWDSNDYENWGQGTQVTVSS
For B8, the binding result was “no binding (tested: 250 nM)”.

B9: 11C08 (VHH)
VHH: EVQLVESGGGLVQAGGSLRLSCAASGVIFRLNAMGWYRAAPGKQRELVAIIVNGGSTNYADSVKGRFTISRDSAKNAVYLQMNSLKPEDTAVYYCYYNIPGDVYWGQGTQVTVSS
As for B9, the binding result is “no binding (tested: 250 nM)”.

B10: 11A06 (VHH)
VHH: EVQLVESGGGLVQPGESLRLSCKASGFSLDYYALGWFRQAPGKEREGISCITSSDASAYYTDSVKGRFTISRDNSKNTVYLQMNSLKTEDTAIYYCAAALLTCSSYYDAYTYWGQGTQVTVSS
In the case of B10, the binding entry is recorded as “no binding (tested: 250 nM)”.

B11: 04B09 (VHH)
VHH: EVQLVESGGGLVQPGGSLRLSCAASGFTLGYYAIGWFRQAPGKEREGVSCDSSSDGDTYYANSVKGRFTISTDNGKNTVYLQMNSLKPEDTAVYYCATCTDWNYDYWGQGTQVTVSS
Take B11: the binding result was “no binding (tested: 250 nM)”.

B12: 03C07 (VHH)
VHH: EVQLVESGGGLVQAGGSLRLSCAASGFTFDDYAIGWFRQAPGKEREAVSCFSSSDGSIYYADSVKGRFTISSDNAKNTVYLQMNSLKPEDTAVYYCAGGGGSYYYTQLNYCYDMDYWGKGTQVTVSS
B12: the binding result is on record as “no binding (tested: 250 nM)”.
